No constants are given. Whether binding was seen depends on the method and setting. Binding seen in cells or lysates may run through a third protein. These calls come from enrichment with a bait or labelling near it, and not all partners need be listed.
T1: BirA-p100-AmotL2 (human) (UniProt Q9Y2J4)
T1 sequence: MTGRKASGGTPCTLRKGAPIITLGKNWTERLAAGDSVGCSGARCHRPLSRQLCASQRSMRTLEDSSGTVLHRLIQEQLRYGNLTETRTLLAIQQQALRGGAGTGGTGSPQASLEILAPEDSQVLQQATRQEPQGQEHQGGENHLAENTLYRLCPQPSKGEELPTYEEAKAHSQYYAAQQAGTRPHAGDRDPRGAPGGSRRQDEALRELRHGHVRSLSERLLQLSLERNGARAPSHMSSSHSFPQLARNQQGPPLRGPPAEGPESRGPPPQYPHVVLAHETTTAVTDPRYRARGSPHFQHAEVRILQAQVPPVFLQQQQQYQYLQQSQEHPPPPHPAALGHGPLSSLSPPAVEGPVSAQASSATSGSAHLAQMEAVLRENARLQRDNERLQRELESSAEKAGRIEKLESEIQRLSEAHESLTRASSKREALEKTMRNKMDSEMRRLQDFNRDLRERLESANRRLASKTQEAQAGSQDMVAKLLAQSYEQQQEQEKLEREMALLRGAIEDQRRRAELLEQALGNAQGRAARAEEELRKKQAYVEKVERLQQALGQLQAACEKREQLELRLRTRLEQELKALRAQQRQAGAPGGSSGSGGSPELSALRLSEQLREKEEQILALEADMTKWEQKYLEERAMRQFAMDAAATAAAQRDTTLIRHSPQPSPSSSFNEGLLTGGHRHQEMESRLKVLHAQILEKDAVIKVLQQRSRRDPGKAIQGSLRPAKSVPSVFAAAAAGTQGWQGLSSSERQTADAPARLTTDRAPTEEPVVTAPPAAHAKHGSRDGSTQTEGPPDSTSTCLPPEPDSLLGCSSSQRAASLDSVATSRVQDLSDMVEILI

The chains behind the UniProt entries cited, without tags or fusion partners.
UniProt Q8K371: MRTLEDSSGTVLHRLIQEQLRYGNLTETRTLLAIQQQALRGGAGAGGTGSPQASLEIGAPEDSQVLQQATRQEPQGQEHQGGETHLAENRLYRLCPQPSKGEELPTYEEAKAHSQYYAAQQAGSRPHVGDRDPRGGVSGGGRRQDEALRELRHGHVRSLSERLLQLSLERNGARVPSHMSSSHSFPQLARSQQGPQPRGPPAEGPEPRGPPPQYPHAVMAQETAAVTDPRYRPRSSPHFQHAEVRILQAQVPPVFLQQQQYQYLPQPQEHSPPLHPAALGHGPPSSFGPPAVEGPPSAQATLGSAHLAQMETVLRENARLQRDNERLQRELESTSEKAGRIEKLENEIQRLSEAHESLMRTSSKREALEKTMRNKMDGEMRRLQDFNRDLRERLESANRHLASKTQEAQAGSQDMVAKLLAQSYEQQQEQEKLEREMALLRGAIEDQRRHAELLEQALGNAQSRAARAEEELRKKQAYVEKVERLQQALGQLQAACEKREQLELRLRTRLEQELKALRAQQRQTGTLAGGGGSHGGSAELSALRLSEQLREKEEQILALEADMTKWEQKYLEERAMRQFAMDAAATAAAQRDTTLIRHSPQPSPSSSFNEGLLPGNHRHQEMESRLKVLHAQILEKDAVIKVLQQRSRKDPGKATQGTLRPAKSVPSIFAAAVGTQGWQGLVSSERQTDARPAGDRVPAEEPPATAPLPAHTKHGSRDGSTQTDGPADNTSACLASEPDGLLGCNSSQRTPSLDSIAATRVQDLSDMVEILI
UniProt Q6RHR9: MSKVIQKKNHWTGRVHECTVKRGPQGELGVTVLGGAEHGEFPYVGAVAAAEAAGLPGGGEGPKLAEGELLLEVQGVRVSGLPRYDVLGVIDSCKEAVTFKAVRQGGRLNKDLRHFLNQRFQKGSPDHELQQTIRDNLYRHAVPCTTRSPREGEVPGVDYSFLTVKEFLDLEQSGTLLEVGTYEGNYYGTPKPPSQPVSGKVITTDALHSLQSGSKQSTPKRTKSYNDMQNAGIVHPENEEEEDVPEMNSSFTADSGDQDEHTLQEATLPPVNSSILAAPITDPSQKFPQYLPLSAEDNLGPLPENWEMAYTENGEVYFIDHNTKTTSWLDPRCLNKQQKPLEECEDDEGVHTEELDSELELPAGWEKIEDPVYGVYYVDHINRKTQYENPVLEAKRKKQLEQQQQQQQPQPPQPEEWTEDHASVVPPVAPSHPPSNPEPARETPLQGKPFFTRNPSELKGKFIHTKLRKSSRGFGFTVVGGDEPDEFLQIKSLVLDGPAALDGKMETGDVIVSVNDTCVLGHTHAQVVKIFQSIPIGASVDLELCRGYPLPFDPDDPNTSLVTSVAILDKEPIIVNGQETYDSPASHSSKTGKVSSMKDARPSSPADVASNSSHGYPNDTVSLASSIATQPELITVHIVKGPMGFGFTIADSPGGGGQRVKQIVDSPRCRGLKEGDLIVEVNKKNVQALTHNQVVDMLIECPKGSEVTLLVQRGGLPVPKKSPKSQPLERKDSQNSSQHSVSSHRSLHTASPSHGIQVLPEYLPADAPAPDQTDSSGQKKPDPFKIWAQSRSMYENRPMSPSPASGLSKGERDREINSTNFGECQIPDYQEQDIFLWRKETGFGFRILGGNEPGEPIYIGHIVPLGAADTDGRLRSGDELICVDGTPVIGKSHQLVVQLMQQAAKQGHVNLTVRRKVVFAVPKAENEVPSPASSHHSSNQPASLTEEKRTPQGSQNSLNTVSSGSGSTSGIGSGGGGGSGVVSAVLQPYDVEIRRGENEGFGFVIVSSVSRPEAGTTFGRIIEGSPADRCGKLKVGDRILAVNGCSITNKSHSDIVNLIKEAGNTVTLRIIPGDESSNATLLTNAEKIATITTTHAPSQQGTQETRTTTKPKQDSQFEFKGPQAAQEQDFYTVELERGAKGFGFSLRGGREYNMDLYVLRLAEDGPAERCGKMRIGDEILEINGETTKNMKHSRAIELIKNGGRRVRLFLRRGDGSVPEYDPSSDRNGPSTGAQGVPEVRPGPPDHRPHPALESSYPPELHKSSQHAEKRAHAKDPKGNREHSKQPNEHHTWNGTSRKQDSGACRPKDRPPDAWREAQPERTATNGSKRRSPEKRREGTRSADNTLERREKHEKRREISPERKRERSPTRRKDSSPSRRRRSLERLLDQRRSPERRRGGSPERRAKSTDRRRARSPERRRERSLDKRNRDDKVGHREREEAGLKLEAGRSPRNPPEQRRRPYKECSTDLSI
UniProt Q02248: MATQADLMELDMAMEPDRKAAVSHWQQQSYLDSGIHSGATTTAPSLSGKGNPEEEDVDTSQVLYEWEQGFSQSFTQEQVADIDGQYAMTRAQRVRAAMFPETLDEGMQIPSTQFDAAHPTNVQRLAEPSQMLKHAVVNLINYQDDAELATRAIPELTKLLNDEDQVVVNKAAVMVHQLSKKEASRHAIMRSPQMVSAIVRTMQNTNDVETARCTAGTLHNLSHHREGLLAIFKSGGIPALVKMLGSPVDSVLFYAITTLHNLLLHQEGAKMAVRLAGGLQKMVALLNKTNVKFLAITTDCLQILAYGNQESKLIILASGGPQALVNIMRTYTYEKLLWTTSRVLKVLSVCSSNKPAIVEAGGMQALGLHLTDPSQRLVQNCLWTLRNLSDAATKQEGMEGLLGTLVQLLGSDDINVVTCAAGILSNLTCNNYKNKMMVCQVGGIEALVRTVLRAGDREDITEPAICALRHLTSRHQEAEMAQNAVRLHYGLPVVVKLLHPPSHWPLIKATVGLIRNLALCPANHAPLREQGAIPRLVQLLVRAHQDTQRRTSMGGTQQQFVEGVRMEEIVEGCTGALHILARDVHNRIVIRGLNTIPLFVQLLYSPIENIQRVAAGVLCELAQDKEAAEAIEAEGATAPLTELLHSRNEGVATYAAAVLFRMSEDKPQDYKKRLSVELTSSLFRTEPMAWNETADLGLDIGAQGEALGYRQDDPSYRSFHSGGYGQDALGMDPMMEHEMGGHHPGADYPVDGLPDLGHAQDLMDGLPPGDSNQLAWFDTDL
UniProt Q8VBX6: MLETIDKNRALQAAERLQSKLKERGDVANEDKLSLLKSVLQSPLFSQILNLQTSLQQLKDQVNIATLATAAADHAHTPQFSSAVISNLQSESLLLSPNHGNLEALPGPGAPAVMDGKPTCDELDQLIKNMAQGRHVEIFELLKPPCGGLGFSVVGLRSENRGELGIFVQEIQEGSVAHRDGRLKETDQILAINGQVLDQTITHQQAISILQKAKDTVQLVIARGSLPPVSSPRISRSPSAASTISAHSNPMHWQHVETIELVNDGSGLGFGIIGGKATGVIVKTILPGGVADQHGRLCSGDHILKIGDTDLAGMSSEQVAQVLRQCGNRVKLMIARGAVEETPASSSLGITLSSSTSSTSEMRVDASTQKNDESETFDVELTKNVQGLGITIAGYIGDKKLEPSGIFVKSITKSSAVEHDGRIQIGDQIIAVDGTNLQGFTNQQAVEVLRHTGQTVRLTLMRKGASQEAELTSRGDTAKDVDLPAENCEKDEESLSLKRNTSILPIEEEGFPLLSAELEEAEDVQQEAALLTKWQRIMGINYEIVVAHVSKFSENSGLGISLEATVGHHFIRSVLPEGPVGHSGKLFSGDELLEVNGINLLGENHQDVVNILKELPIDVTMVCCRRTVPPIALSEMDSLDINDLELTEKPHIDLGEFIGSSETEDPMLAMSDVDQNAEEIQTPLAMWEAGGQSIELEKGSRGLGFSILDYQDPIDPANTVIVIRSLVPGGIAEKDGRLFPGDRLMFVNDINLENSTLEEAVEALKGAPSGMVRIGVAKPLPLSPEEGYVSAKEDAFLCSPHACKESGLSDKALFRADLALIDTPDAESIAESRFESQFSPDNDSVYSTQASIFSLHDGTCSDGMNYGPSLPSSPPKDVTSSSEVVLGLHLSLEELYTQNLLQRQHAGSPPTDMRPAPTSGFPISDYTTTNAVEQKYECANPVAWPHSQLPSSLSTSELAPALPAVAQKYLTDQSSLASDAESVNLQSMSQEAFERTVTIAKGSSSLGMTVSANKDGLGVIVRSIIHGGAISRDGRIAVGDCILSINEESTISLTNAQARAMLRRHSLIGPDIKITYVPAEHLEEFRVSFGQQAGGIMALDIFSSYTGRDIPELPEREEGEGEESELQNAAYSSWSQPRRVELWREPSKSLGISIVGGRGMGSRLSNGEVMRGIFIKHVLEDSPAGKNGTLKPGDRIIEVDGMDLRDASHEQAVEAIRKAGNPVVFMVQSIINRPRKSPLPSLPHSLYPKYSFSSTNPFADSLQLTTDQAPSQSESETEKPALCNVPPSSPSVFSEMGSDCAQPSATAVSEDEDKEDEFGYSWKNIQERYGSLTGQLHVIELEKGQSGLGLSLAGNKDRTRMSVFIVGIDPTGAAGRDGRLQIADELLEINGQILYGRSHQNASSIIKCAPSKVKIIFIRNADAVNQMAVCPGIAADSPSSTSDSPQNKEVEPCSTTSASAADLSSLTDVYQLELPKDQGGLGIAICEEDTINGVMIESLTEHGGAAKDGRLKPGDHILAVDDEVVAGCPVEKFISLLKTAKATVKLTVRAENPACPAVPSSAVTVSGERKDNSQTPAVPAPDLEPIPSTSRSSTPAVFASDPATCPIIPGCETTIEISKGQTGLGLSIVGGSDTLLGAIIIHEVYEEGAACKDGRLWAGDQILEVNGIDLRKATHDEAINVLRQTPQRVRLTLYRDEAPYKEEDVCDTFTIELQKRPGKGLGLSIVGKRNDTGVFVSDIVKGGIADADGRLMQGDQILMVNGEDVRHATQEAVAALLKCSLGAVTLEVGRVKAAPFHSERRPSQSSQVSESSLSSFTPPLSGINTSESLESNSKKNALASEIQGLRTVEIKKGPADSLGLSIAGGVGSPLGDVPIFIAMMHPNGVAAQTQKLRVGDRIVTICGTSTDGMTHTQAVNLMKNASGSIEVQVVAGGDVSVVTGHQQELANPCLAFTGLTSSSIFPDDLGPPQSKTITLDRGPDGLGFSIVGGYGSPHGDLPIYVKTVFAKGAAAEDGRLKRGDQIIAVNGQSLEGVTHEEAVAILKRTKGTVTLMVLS


Legend:
BirA-p100-AmotL2 (human) = molecular target: T1, BirA-p100-AmotL2 (human); experiment: proximity labelling; BioID in MS1 cells stably expressing BirA-p100-AmotL2; biotin for 16 h, lysis in 8 M urea, streptavidin beads, MS; controls empty vector and BirA-p60-AmotL2
[1] = molecular target: AmotL2 (mouse, endogenous) (mouse (endogenous in MS1 cells, lung and aorta)) (UniProt Q8K371); experiment: affinity purification with mass spectrometry; IP with AmotL2 antibodies from MS1 cell lysate against control IP; on-bead digestion, LC-MS/MS; three independent experiments

Row | Molecule | binding (BirA-p100-AmotL2 (human)) | binding [1]
1 | Magi1 (mouse, endogenous) (from UniProt Q6RHR9 1-1471) | binds | 
2 | Afadin (mouse, endogenous) (from UniProt Q9QZQ1 1-1820) | binds | 
3 | LAP2β (mouse, endogenous) (protein, UniProt Q61029 1-452) MPEFLEDPSVLTKDKLKSELVANNVTLPAGEQRKDVYVQLYLQHLTARNRPPLAAGANSKGPPDFSSDEEREPTPVLGSGASVGRGRGAVGRKATKKTDKPRLEDKDDLDVTELSNEELLDQLVRYGVNPGPIVGTTRKLYEKKLLKLREQGTESRSSTPLPTVSSSAENTRQNGSNDSDRYSDNDEDSKIELKLEKREPLKGRAKTPVTLKQRRTEHNQSYSQAGVTETEWTSGSSTGGPLQALTRESTRGSRRTPRKRVETSQHFRIDGAVISESTPIAETIKASSNESLVANRLTGNFKHASSILPITEFSDITRRTPKKPLTRAEVGEKTEERRVDRDILKEMFPYEASTPTGISASCRRPIKGAAGRPLELSDFRMEESFSSKYVPKYAPLADVKSEKTKKRRSVPMWIKMLLFALVAVFLFLVYQAMETNQGNPFTNFLQDTKISN |  | binds
4 | LAP2α (mouse, endogenous) (protein, UniProt Q61033 1-693) MPEFLEDPSVLTKDKLKSELVANNVTLPAGEQRKDVYVQLYLQHLTARNRPPLAAGANSKGPPDFSSDEEREPTPVLGSGASVGRGRGAVGRKATKKTDKPRLEDKDDLDVTELSNEELLDQLVRYGVNPGPIVGTTRKLYEKKLLKLREQGTESRSSTPLPTVSSSAENTRQNGSNDSDRYSDNDEGKKKEHKKVKSARDCVPFSELASTPSGAFFQGISFPEISTRPPLGRTELQAAKKVQTTKRDPPRETCTDTALPGKGQTHKLAPGRSLFIPSESSYDRCVEKSSSPSSQREFAARLVSAAASPSLIRETTTTYSKDIVENICRGGKSRAQPLRAEEPGVSDQSVFSSEREVLQESERSQVISPPLAQAIRDYVNSLLVQGGVGSLPGTSDSVPTLDVENICKRLSQSSYQDSESLSPPRKVPRLSEKPARGGDSGSCVAFQNTPGSEHRSSFAKSVVSHSLTTLGVEVSKPPPQHDKIEASEPSFPLHESILKVVEEEWQQIDRQLPSVACRYPVSSIEAARILSVPKVDDEILGFISEATPRAATQASSTESCDKHLDLALCRSYEAAASALQIAAHTAFVAKSLQADISQAAQIINSDPSDAQQALRILNRTYDAASYLCDAAFDEVRMSACAMGSSTMGRRYLWLKDCKISPASKNKLTVAPFKGGTLFGGEVHKVIKKRGNKQ |  | binds
5 | AmotL1 (mouse, endogenous) (protein, UniProt Q9D4H4 1-968) MRRAKSRRGPCEPVLRAPPPICYSPSSPVQILEDPAYFYPDLQLYSGRHEASTLTVEASGGLRGKSVEDPLSSFHSPNFLRTPEVEMRGSEDVASGRVLQRLIQEQLRYGTPTENMNLLAIQHQATGSAGPAHATTNFSSTETLTQEDPQMVYQSARQEPQGQEHQGDNTVMEKQVRSTQPQQNNEELPTYEEAKAQSQFFRGQQQQQQQQQQQQQQQQQQGQGPLSHTYYMAGGTSQKSRTEGRPTVNRANSGQAHKDEALKELKQGHVRSLSERIMQLSLERNGAKQHLPSSGNGKSFKAGGEPSPAQPVCKALDPRGPPPEYPFKTKPMKSPVSKNQDHGLYYNDQHPGVLHEMVKPYPAPQPARTEVAVLRYQPPPEYGVTSRPCQLPFPSTVQQHSPMSSQTSSIGGTLHSVSLPLPLPISLAASQPLPASPNQQLGPDAFAIVERAQQMVEILTEENRVLHQELQGCYDNADKLHKFEKELQSISEAYESLVKSTTKRESLDKAMRTKLEGEIRRLHDFNRDLRDRLETANRQLSSREYDGHEDKAAESHYVSQNKEFLKEKEKLEMELAAVRTASEDHRRHIEILDQALSNAQARVIKLEEELREKQAYVEKVEKLQQALTQLQSACEKRGQMERRLRTWLERELDALRTQQKHGTGPPVSLPECNAPALMELVREKEERILALEADMTKWEQKYLEESTIRHFAMSAAAAATAERDTTISNHSRNGSYGESSLEAHIWPEEEEVVQANRRCQDMEYTIKNLHAKIIEKDAMIKVLQQRSRKDAGKTDSASLRPARSVPSIAAATGTHSRQTSLTSSQLTEEKKEEKTTWKGSIGFLLGKEHQGQASAPLLPTTPASALSLPASTTSASSTHAKTGSKDSSTQTDKSTELFWPSMASLPSRGRLSTAPSNSPILKHPAAKGAVEKQENSPGHGKASEHRGRVSNLLHKPEFPDGEMMEVLI | binds | 

Continued, values first:

Row | binding (BirA-p100-AmotL2 (human)) | binding [1] | Molecule
6 |  | binds | β-catenin (mouse, endogenous) (from UniProt Q02248 1-781)
7 | binds |  | Mpdz (mouse, endogenous) (from UniProt Q8VBX6 1-2055)
8 |  | binds | VE-cadherin (mouse, endogenous) (protein, UniProt P55284 46-784) DWIWNQMHIDEEKNESLPHYVGKIKSNVNRQNAKYVLQGEFAGKIFGVDANTGNVLAYERLDREKVSEYFLTALIVDKNTNKNLEQPSSFTVKVHDINDNWPVFSHQVFNASVPEMSAIGTSVIRVTAVDADDPTVAGHATVLYQIVKGNEYFSIDNSGLIFTKIKNLDREKQAEYKIVVETQDALGLRGESGTATVMIRLEDINDNFPVFTQSTYTFSVPEDIRVGKPLGFLTVVDPDEPQNRMTKYSIMQGEYRDTFTIETDPKRNEGIIKPTKSLDYEVIQQYTFYIEATDPTIRYEYLSSTSGKNKAMVTINVLDVDEPPVFQRHFYHFKLPENQKKPLIGTVVAKDPDKAQRSIGYSIRKTSDRGQFFRITKQGNIYNEKELDRETYAWYNLTVEANELDSRGNPVGKESIVQVYIEVLDENDNPPEFAQPYEPKVCENAAQGKLVVQISATDKDVVPVNPKFKFALKNEDSNFTLINNHDNTANITVKYGQFNREHAKFHYLPVLISDNGVPSLTGTSTLTVGVCKCNEQGEFTFCEEMAAQAGVSIQALVAIFLCILTITVITLLIILRRRIRKQAHAHSKSALEIHEQLVTYDEEGGGEMDTTSYDVSVLNSVRGGSTKPLRSTMDARPAVYTQVQKPPRLAPGLHGGPREMATMIDVKKEEADNDGGGPPYDTLHIYGYEGAESIAESLSSLSTNSSDSDIDYDFLNDWGPRFKMLAELYGSDPQEELII
9 | binds | binds | p120 catenin (mouse, endogenous) (protein, UniProt P30999 1-938) MDDSEVESTASILASVKEQEAQFEKLTRALEEERRHVSAQLERVRVSPQDANSLMANGTLTRRHQNGRFVGDADLERQKFSDLKLNGPQDHNHLLYSTIPRMQEPGQIVETYTEEDPEGAMSVVSVETTDDGTTRRTETTVKKVVKTMTTRTVQPVPMGPDGLPVDASAVSNNYIQTLGRDFRKNGNGGPGPYVGQAGTATLPRNFHYPPDGYGRHYEDGYPGGSDNYGSLSRVTRIEERYRPSMEGYRAPSRQDVYGPQPQVRVGGSSVDLHRFHPEPYGLEDDQRSMGYDDLDYGMMSDYGTARRTGTPSDPRRRLRSYEDMIGEEVPPDQYYWAPLAQHERGSLASLDSLRKGMPPPSNWRQPELPEVIAMLGFRLDAVKSNAAAYLQHLCYRNDKVKTDVRKLKGIPILVGLLDHPKKEVHLGACGALKNISFGRDQDNKIAIKNCDGVPALVRLLRKARDMDLTEVITGTLWNLSSHDSIKMEIVDHALHALTDEVIIPHSGWEREPNEDCKPRHIEWESVLTNTAGCLRNVSSERSEARRKLRECDGLVDALIFIVQAEIGQKDSDSKLVENCVCLLRNLSYQVHREIPQAERYQEALPTVANSTGPHAASCFGAKKGKDEWFSRGKKPTEDPANDTVDFPKRTSPARGYELLFQPEVVRIYISLLKESKTPAILEASAGAIQNLCAGRWTYGRYIRSALRQEKALSAIAELLTSEHERVVKAASGALRNLAVDARNKELIGKHAIPNLVKNLPGGQQNSSWNFSEDTVVSILNTINEVIAENLEAAKKLRETQGIEKLVLINKSGNRSEKEVRAAALVLQTIWGYKELRKPLEKEGWKKSDFQVNLNNASRSQSSHSYDDSTLPLIDRNQKSDKKPDREEIPMSNMGSNTKSLDNNYSTLNERGDHNRTLDRSGDLGDMEPLKGAPLMQKI
10 |  | binds | SUN2 (mouse, endogenous) (protein, UniProt Q8BJS4 1-731) MSRRSQRLTRYSQDDNDGGSSSSGASSVAGSQGTVFKDSPLRTLKRKSSNMKHLSPAPQLGPSSDSHTSYYSESVVRESYIGSPRAVSLARSALLDDHLHSEPYWSGDLRGRRRRGTGGSESSKANGLTAESKASEDFFGSSSGYSSEDDLAGYTDSDQHSSGSRLRSAASRAGSFVWTLVTFPGRLFGLLYWWIGTTWYRLTTAASLLDVFVLTRSRHFSLNLKSFLWFLLLLLLLTGLTYGAWHFYPLGLQTLQPAVVSWWAAKESRKQPEVWESRDASQHFQAEQRVLSRVHSLERRLEALAADFSSNWQKEAIRLERLELRQGAAGHGGGSSLSHEDALSLLEGLVSRREATLKEDLRRDTVAHIQEELATLRAEHHQDSEDLFKKIVQASQESEARVQQLKTEWKSMTQEAFQESSVKELGRLEAQLASLRQELAALTLKQNSVADEVGLLPQKIQAARADVESQFPDWIRQFLLGDRGARSGLLQRDEMHAQLQELENKILTKMAEMQGKSAREAAASLGQILQKEGIVGVTEEQVHRIVKQALQRYSEDRIGMVDYALESGGASVISTRCSETYETKTALLSLFGIPLWYHSQSPRVILQPDVHPGNCWAFQGPQGFAVVRLSARIRPTAVTLEHVPKALSPNSTISSAPKDFAIFGFDEDLQQEGTLLGTFAYDQDGEPIQTFYFQASKMATYQVVELRILTNWGHPEYTCIYRFRVHGEPAH

Source: paper PMC11358041
